Measurements taken from PMC7053138.

Target: barley RAC1 (wild type), yeast two-hybrid fusion (barley (Hordeum vulgare)) (UniProt Q70WD7)
Test: two-hybrid; targeted yeast two-hybrid in strain AH109; bait- and prey-transformed cells dropped on SD -L-W (transformation) or SD -L,-W,-A-H (interaction-selective) medium; empty pGADT7 and pGBKT7 as auto-activity controls

binding: binds
Substance: barley ROP-Interactive Partner-a (RIPa), yeast two-hybrid fusion (from UniProt F2DI37)

These are yes or no findings as the source states them, for the method shown. A result given as binding can be weak or reduced; the word gives no strength.
